# In PubChem BioAssay AID2685 (National Center for Advancing Translational Sciences (NCATS), 2010):
# The campaign covered roughly 320,000 compounds. About 2,100 (0.66%) were called active. Inconclusive results, whose numbers are uncertain, are shown with a selection of clear calls. The call rests on the fitted dose curve; in most records, active means well fitted inhibition curve with a large enough effect in the signal ratio, with a control signal flat (not every such curve was filed as active); inconclusive means small, poorly fitted or top-dose-only effect, or effect the other way, or a change in a side signal; inactive means flat fitted curve, though single readings scatter; the % refers to the signal ratio. A potency beside an inconclusive call is a rough fit, not a confirmed value.
# Assay: qHTS Assay for Lipid Storage Modulators in Drosophila S3 Cells
# Conditions: BODIPY lipid droplet fluorescence, 18-24 h, cells fed with added oleic acid; lipid storage change, negative = inhibition: at 46.1 µM (top of the series) unless noted
# Summary of the method: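 Drosophila S3 cells loaded with oleic acid (400 uM, as added) and compounds at several concentrations; lipid droplets imaged by 488-nm laser-scanning cytometry, 500–530 nm intensity and object ratio to cell channel. Percent activity normalized to 20 uM Triacsin C.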
# On the % scale 0 is the no-effect control and ±100 the full control effect; potency means the concentration at half of the fitted maximal effect.
Compound,"lipid storage change, negative = inhibition",Potency,outcome
CCC(=O)Nc1c2c(nn1-c1ccc(OC)cc1)CS(=O)C2 (stereo not drawn),inactive: -15%,,
COC(=O)CC1COc2ccccc2N1C(=O)/C=C/c1ccccc1 (stereo not drawn),inconclusive: 14%,,
Cc1ccc(C(=O)N2NC(c3ccc(F)cc3)C3C(=O)N(c4ccc(C)c(C)c4)C(=O)C32)cc1 (stereo not drawn),inconclusive: 28.8%,,
Cc1cccc(NC(=O)Nc2ccccc2[N+](=O)[O-])n1,inconclusive: 247%,,
COc1ccc2[nH]c3c(=O)n(CCCC(=O)NC4CCCCC4C)c(=S)[nH]c3c2c1 (stereo not drawn),,"inconclusive: 29.1 µM [falling, single point]",
CC(=O)NC(CCS(C)(=O)=O)C(=O)Nc1cccc2ccccc12 (stereo not drawn),inconclusive: -4.74%,,
CCn1c(=O)n(CC)c2cc(N3CCCC3)c(NC(=O)c3cccc(Cl)c3)cc21,,"inconclusive: 29.1 µM [falling, single point]",
CCCCNCc1cc(Br)c(OCC(=O)N2CCOCC2)c(OC)c1,inconclusive: 25%,,
CC(=O)c1c(C)[nH]c(=S)c(C#N)c1-c1ccc(F)cc1,inconclusive: 31.2%,,
COc1ccc(-c2cn3c(n2)CCC3)cc1,inconclusive: 13.3%,,
CN1CCN(C(=O)/C(=C/c2ccc(F)cc2)NC(=O)c2ccccc2)CC1,inconclusive: 3.88%,,
COc1cccc(C2=NOC(C(=O)Nc3ccc4c(c3)OCO4)C2)c1 (stereo not drawn),inactive: 4.64%,,
O=C(O)c1ccccc1CSc1nnnn1-c1ccccc1,inconclusive: 28.1%,,
O=C(NCCN1CCOCC1)c1ccc2ccccc2c1,,"inconclusive: 9.2 µM [falling, single point]",
CN(CC(=O)Nc1ccccc1Cl)C(=O)COC(=O)c1nc(Cl)c(Cl)c(Cl)c1Cl,,"inconclusive: 28.2 µM [falling, single point]",
Cc1c(C(=O)NC2CCCC2)oc2ccccc12,inconclusive: -24.2%,,
CCOC(=O)c1c(-c2ccccc2Cl)csc1NC(=O)c1cc(S(=O)(=O)N2CCOCC2)ccc1C,,"inconclusive: 7.31 µM [cytotoxic, partial curve]",
CCOc1cc(C(=O)NC(=S)Nc2cccnc2)cc(OCC)c1OCC,inconclusive: -64.4%,,
COc1ccc(N2CC(C(=O)N3CCN(c4ccccc4)CC3)CC2=O)cc1 (stereo not drawn),inconclusive: 42%,,
COc1ccc(Cl)cc1C(=O)Nc1ccc(CN2CCCCC2)cc1,inconclusive: 28.3%,,
CCCNC(=O)NCc1ccc(N2CCCC2=O)cc1,inconclusive: -30.6%,,
O=C(NCc1ccco1)C1CCCN1C(=O)Nc1ccc(Cl)cc1 (stereo not drawn),inconclusive: -14.1%,,
Cc1cccc(N2CCN(C(=O)c3ccc(N4CCCC4=O)cc3)CC2)c1C,,"inconclusive: 6.51 µM [activator, partial curve]",
CC(C)CC1COC(=O)N1 (stereo not drawn),,"inconclusive: 18.4 µM [activator, single point]",
O=C(Oc1cccc(C(=O)N2CCOCC2)c1)c1ccc(Br)cc1,,"inconclusive: 6.51 µM [falling, single point]",
O=[N+]([O-])c1ccc(O)c(C=Nc2ccc3c(c2)OCO3)c1,inconclusive: -13.9%,,

# Among those listed so far, 2 contain an NH in an aromatic ring:
Compound,"lipid storage change, negative = inhibition",Potency,outcome
COc1ccc2[nH]c3c(=O)n(CCCC(=O)NC4CCCCC4C)c(=S)[nH]c3c2c1 (stereo not drawn),,"inconclusive: 29.1 µM [falling, single point]",
CC(=O)c1c(C)[nH]c(=S)c(C#N)c1-c1ccc(F)cc1,inconclusive: 31.2%,,

# The list continues.

Compound,"lipid storage change, negative = inhibition",Potency,outcome
CC(C)C[C@H](CO)Nc1nc(N(C)c2cccc(Cl)c2)c2ncn(C(C)C)c2n1,inconclusive: 2.2%,,
COc1cccc(NC(=O)Cn2c(=O)n(CC3CCCO3)c(=O)c3ccccc32)c1 (stereo not drawn),,"inconclusive: 6.51 µM [activator, single point]",
C=CCn1c(-c2csc(-c3ccc(Cl)cc3)n2)n[nH]c1=S,,"inconclusive: 0.461 µM [activator, full curve]",
CN(CCc1ccccn1)C(=O)Nc1ccc(F)cc1,inconclusive: 5.55%,,
O=C1NCCN1Cc1ccc(F)cc1,inconclusive: -24.2%,,
CC[C@H](C)[C@H](NC(N)=O)C(=O)NNC(=O)c1ccc(COc2cccc3cccnc23)cc1,,"inconclusive: 1.16 µM [falling, single point]",
Cc1ccc(S(=O)(=O)N(C)CC(=O)OCC(=O)NCCN2C(=O)CSC2=O)cc1,,"inconclusive: 0.517 µM [falling, full curve, poor fit]",
COc1cc(S(=O)(=O)N2CCC(N3CCCCC3)CC2)ccc1-n1cnnn1,inconclusive: -10.9%,,
C=CCn1c(=N)n(CC(O)COc2ccccc2OC)c2ccccc21 (stereo not drawn),inconclusive: 60.8%,,
Cn1nccc1C(=O)Nn1cnnc1,inconclusive: -34.9%,,
NC(=O)C1CCN(C(=O)c2ccc(CS(=O)(=O)c3c(Cl)cccc3Cl)o2)CC1,inconclusive: 16.1% [at 9.22 µM],,
Cc1cccc(NC(=O)c2c(C)nn(-c3ccccc3)c2Cl)c1,inconclusive: 60.7%,,
Cc1ccc2oc(=O)c3cc(C(=O)NCCCN4CC(C)CC(C)C4)sc3c2c1 (stereo not drawn),inconclusive: -20.7%,,
O=C(CCc1nnc2n(Cc3ccc(Cl)cc3)c(=O)c3ccccc3n12)N1CCN(c2ccccn2)CC1,,,inactive [at 46.1 µM]
Cc1ccn(CCC(=O)N2CCc3ccccc32)n1,,"inconclusive: 29.1 µM [falling, single point]",
Cc1ccccc1CCN(C(=O)Cn1nnc2ccccc21)C(C(=O)NC(C)(C)C)c1ccsc1 (stereo not drawn),inconclusive: 13%,,
Cc1cc(C)n(-c2ccc(C(=O)N3CCC(CO)(Cc4ccccc4)CC3)cc2)n1,inconclusive: -5.5%,,
CCCC(=O)NC(C)C(c1cccs1)N1CCN(C)CC1 (stereo not drawn),inconclusive: -4.47%,,
CCCC[C@@H]1CN=C(N)N1CCc1cc(C(F)(F)F)cc(C(F)(F)F)c1,inconclusive: 14.1%,,
O=C(CS(=O)(=O)Cc1ccccc1)Nc1nc2c(s1)CCCC2,,"inconclusive: 4.61 µM [activator, full curve, poor fit]",
Cc1c(/C(O)=C2/C(=O)C(=O)N(Cc3cccnc3)C2c2cccs2)cnn1-c1ccccc1 (stereo not drawn),,"inconclusive: 0.731 µM [activator, full curve]",
Cc1c(CCC(=O)NCCCn2ccnc2)c(=O)oc2cc3occ(C(C)(C)C)c3cc12,inconclusive: -89.6%,,
COc1ccc(OC)c(NC(=O)C23CC4CC(C2)CC(n2cnc(Br)n2)(C4)C3)c1,,"inconclusive: 3.26 µM [activator, partial curve]",
CN(C)S(=O)(=O)c1ccc(C(=O)Nc2ccc(CN3CCCC3)cc2)cc1,inconclusive: -6.7%,,
O=C(NNC(=O)c1cc2cc3ccccc3nc2s1)c1cccc(C(F)(F)F)c1,inconclusive: 18.9%,,
O=S(=O)(NCC(c1ccco1)N1CCN(c2ccccc2F)CC1)c1ccc2c(c1)OCCO2 (stereo not drawn),,active: 23.1 µM,

Compound,"lipid storage change, negative = inhibition",Potency,outcome
CCc1c(C(=O)N2CCOCC2)csc1C,inconclusive: -9.06%,,
Cc1nn(CC(=O)OC(C)C(=O)Nc2ccccc2[N+](=O)[O-])c(C)c1[N+](=O)[O-] (stereo not drawn),inconclusive: 8.44%,,
COCCNC(=O)/C(C#N)=C/c1cccc(NC(=O)c2ccccc2Cl)c1,inconclusive: -49.2%,,
Cn1c(N)c(C(=O)COC(=O)CCC2CCCC2)c(=O)n(C)c1=O,,"inconclusive: 0.411 µM [activator, single point]",
CCOc1ccc(N(CC(=O)N2CC=C(c3ccccc3)CC2)S(=O)(=O)c2c(C)noc2C)cc1,inconclusive: 7.81%,,
O=C(CC1SC(=O)N(c2ccccc2)C1=O)Nc1ccccc1 (stereo not drawn),inconclusive: 10.7%,,
Cc1ccc(-c2csc(N3CCN(CCCn4c(-c5ccncc5)nc5ccccc54)CC3)n2)cc1,inconclusive: -1.87%,,
CNc1nc(Nc2ccc([N+](=O)[O-])cc2)nc(OCC(F)(F)F)n1,inconclusive: 8.14%,,
CNC(=S)N/N=C1\CC(c2ccccc2)Oc2ccccc21 (stereo not drawn),inconclusive: 7.93%,,
O=C(/C=C/c1cccc([N+](=O)[O-])c1)OCC(=O)c1ccccc1,inconclusive: -27.6%,,
COc1ccc(CNc2ccc([N+](=O)[O-])cc2C)cc1,inconclusive: 18%,,
COCc1nnc(SCC(=O)Nc2cccc(Cl)c2C)n1-c1ccccc1,inconclusive: 16.3%,,
c1cncc(-c2nc(NCCCn3ccnc3)c3ccccc3n2)c1,,"inconclusive: 0.651 µM [activator, full curve, poor fit]",
CC/C(=N\NC(=O)c1cc(C)nc2ccccc12)c1ccc(C)s1,inconclusive: 1.52%,,
CN1CCN(c2ccc(NC(=O)c3ccc(Cl)cc3Cl)cc2)CC1,inconclusive: 27.4%,,
O=C(Cn1[nH]c(=O)c2ccccc2c1=O)NC1CCCCCC1,,"inconclusive: 1.84 µM [activator, partial curve]",
Cc1cnc(C(=O)OCC(=O)NCCCc2ccccc2)cn1,,active: 5.17 µM,
CCCOc1cccc(C(=O)NC(=S)Nc2cccc(NC(=O)c3ccccc3Cl)c2)c1,inconclusive: -21.6%,,
CCc1ccc(S(=O)(=O)N2c3ccc(C)cc3C3CN(C)CCC32)cc1 (stereo not drawn),inconclusive: -4.93%,,
CC(C)(C)NC(=O)CN(CC1CCCO1)C(=O)CNS(=O)(=O)c1ccc(F)cc1 (stereo not drawn),inconclusive: -18.1%,,
CCOC(=O)CCNCc1ccc(F)cc1,inconclusive: -20.1%,,
CC(c1ccon1)N(C)C(=O)CCc1nnc(Cc2ccc(-c3ccccc3)cc2)o1 (stereo not drawn),inconclusive: 7.7%,,
COC(=O)c1cc(S(=O)(=O)NCCc2cccc(C)c2)cn1C,inconclusive: -46.1%,,
O=c1c2ccccc2c(=O)n2n1Cc1ccccc1C2,,"inconclusive: 3.26 µM [activator, single point]",
Cc1ccsc1/C=N/NC(=O)Cc1ccc(Cl)cc1,,"inconclusive: 9.2 µM [activator, partial curve, poor fit]",
CCOC(=O)Nc1nc(-c2ccccc2)c(C(=O)c2ccccc2)s1,,"inconclusive: 23.1 µM [rising, partial curve]",
